Values from PubChem BioAssay AID1671195 (Yale University, 2021)
Here is one part, drawn at random, of about 22,000 deposited reagents. About 1,510 of them (6.9%) were called active. 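Active includes knockdowns raising or lowering LDL uptake; positive z-scores mean more uptake, negative mean less.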 A number with no mark means an inactive call. Reagents against one gene are numbered here.

Screen: 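Knockdowns that increase or decrease uptake of fluorescent LDL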 (primary screen)
Cell system: human Huh7 hepatoma cells
Reagent: siRNA pool against human genes, 18 nM
Time to read-out: about 2 to 2.5 days of knockdown, then 8 h LDL uptake
Conditions: DiI-labelled LDL at 30 µg/ml for 8 h, in lipoprotein-deficient serum medium
Read-out: 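Per-cell DiI-LDL intensity by automated imaging; well means scaled to the plate median and given as a robust z-score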
Scale: robust z-score: higher = more LDL uptake after knockdown
Rule for the call: 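Active when two or more replicates show a robust z-score above 2 or below -2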

ADCY1 (adenylate cyclase 1) gave robust z-score, replicate 1 = -0.424; robust z-score, replicate 2 = -0.921; robust z-score, replicate 3 = -1.16.
KISS1R (KISS1 receptor) showed robust z-score, replicate 1 = 1.6; robust z-score, replicate 2 = 0.574; robust z-score, replicate 3 = 0.754.
After knock-down of CLPTM1L (CLPTM1 like), the screen gave robust z-score, replicate 1 = -0.342; robust z-score, replicate 2 = 0.224; robust z-score, replicate 3 = 0.317.
With knock-down of ZCCHC13 (zinc finger CCHC-type containing 13), the record shows robust z-score, replicate 1 = -0.599; robust z-score, replicate 2 = -0.605; robust z-score, replicate 3 = -0.33.
Silencing of COMMD9 (COMM domain containing 9) #1 came out at: robust z-score, replicate 1 = 0.46; robust z-score, replicate 2 = 0.43; robust z-score, replicate 3 = 0.021.
For COMMD9 (COMM domain containing 9) #2, the entry reads robust z-score, replicate 1 = 0.961; robust z-score, replicate 2 = -0.69; robust z-score, replicate 3 = 0.593.
After knock-down of RBFA (ribosome binding factor A) the results were robust z-score, replicate 1 = 0.19; robust z-score, replicate 2 = -0.302; robust z-score, replicate 3 = -0.579.
Against SNTN (sentan, cilia apical structure protein), the values are robust z-score, replicate 1 = -1.47; robust z-score, replicate 2 = -1.15; robust z-score, replicate 3 = 0.16.
Against FOXRED1 (FAD dependent oxidoreductase domain containing 1) the deposit lists robust z-score, replicate 1 = -0.332; robust z-score, replicate 2 = 0.582; robust z-score, replicate 3 = 0.356.
LOC440616 (retired record) showed robust z-score, replicate 1 = -2.4 (active); robust z-score, replicate 2 = -1.99; robust z-score, replicate 3 = -2.06.
With knock-down of RPP30 (ribonuclease P/MRP subunit p30), the record shows robust z-score, replicate 1 = -1.03; robust z-score, replicate 2 = -0.514; robust z-score, replicate 3 = -0.835.
Against LOC401476 (retired record), the entry reads robust z-score, replicate 1 = 0.621; robust z-score, replicate 2 = -1.8; robust z-score, replicate 3 = 0.339.
With knock-down of DDX53 (DEAD-box helicase 53), the record shows robust z-score, replicate 1 = -0.433; robust z-score, replicate 2 = -0.236; robust z-score, replicate 3 = -0.545.
Against FOXN1 (forkhead box N1), the values are robust z-score, replicate 1 = -0.967; robust z-score, replicate 2 = -1.5; robust z-score, replicate 3 = -1.57.
C3orf70 (chromosome 3 open reading frame 70) showed robust z-score, replicate 1 = -0.443; robust z-score, replicate 2 = 0.00289; robust z-score, replicate 3 = -0.0181.
Depletion of TRIM44 (TRIM family member 44) came out at: robust z-score, replicate 1 = -0.628; robust z-score, replicate 2 = -1.88; robust z-score, replicate 3 = -0.692.
Knock-down of GPR141 (G protein-coupled receptor 141) gave: robust z-score, replicate 1 = -0.11; robust z-score, replicate 2 = 1.03; robust z-score, replicate 3 = 1.07.
For CCDC9 (coiled-coil domain containing 9) the deposit lists robust z-score, replicate 1 = -1.4; robust z-score, replicate 2 = -0.367; robust z-score, replicate 3 = 0.214.
After knock-down of MAPK7 (mitogen-activated protein kinase 7) the results were robust z-score, replicate 1 = -1.4; robust z-score, replicate 2 = -1.49; robust z-score, replicate 3 = -1.18.
After knock-down of NR2E3 (nuclear receptor subfamily 2 group E member 3) the results were robust z-score, replicate 1 = -0.72; robust z-score, replicate 2 = -0.578; robust z-score, replicate 3 = -0.903.
After knock-down of CLPB (ClpB family mitochondrial disaggregase) the results were robust z-score, replicate 1 = -1.1; robust z-score, replicate 2 = -1.25; robust z-score, replicate 3 = -0.654.
LOC442007 (retired record) showed robust z-score, replicate 1 = -0.651; robust z-score, replicate 2 = 0.127; robust z-score, replicate 3 = -0.141.
DCTD (dCMP deaminase) gave robust z-score, replicate 1 = 1.03 (active); robust z-score, replicate 2 = 1.95; robust z-score, replicate 3 = 2.71.
LOC392554 (retired record) scored robust z-score, replicate 1 = 0.441; robust z-score, replicate 2 = 1.38; robust z-score, replicate 3 = 1.19.
Depletion of NPC2 (NPC intracellular cholesterol transporter 2) came out at: robust z-score, replicate 1 = 0.771; robust z-score, replicate 2 = -0.606; robust z-score, replicate 3 = -0.428.
Against XPNPEP2 (X-prolyl aminopeptidase 2), the values are robust z-score, replicate 1 = -1.06; robust z-score, replicate 2 = -1.29; robust z-score, replicate 3 = -1.22.
LINC02692 (long independently transcribed non-coding RNA 2692) gave robust z-score, replicate 1 = -0.62; robust z-score, replicate 2 = -1.16; robust z-score, replicate 3 = -0.668.
Against ZBTB9 (zinc finger and BTB domain containing 9), the values are robust z-score, replicate 1 = 1.33; robust z-score, replicate 2 = 1.96; robust z-score, replicate 3 = 1.82.
Against ADAMTSL5 (ADAMTS like 5), the values are robust z-score, replicate 1 = -0.35; robust z-score, replicate 2 = -0.147; robust z-score, replicate 3 = -0.0523.
Silencing of AGA (aspartylglucosaminidase) came out at: robust z-score, replicate 1 = 0.505; robust z-score, replicate 2 = -2.24; robust z-score, replicate 3 = 0.614.

Reagents listed above marked active, once more:
LOC440616 (retired record) | robust z-score, replicate 1: -2.4 (active); robust z-score, replicate 2: -1.99; robust z-score, replicate 3: -2.06
DCTD (dCMP deaminase) | robust z-score, replicate 1: 1.03 (active); robust z-score, replicate 2: 1.95; robust z-score, replicate 3: 2.71
